Consider 10 compounds from PubChem BioAssay AID248 (DTP/NCI, 2004).

The list does not hold the whole screen: it gathers some chemical classes. Not every dose and run of a compound is shown. T/C: endpoint of the treated group in % of that of the vehicle group. Some doses have a count of surviving animals in place of a T/C: the source holds a T/C of zero for them, seemingly a mark for toxic or unscored doses. Some doses without a T/C left all or most animals alive at the check, yet need not have been tolerated: the source hardly ever lists a survival T/C far under the control, and the zero likely stands for such cases as well. Survivors were counted at the toxicity check, usually on the fifth day, unless a day is given; later deaths do not show. Schedule codes are those of the source, read here as Q, the interval in days (D) or hours (H), X, the number of doses. Where survival is the endpoint, the PubChem record calls one and a half times the control and up active, and a quarter to a half above the control has no call in these data; cut-offs in other NCI protocols can differ. Some entries were tested several times; their values stand side by side, smallest first. Some entries show no survivor count and are marked so; the dose need not have been tolerated. Some T/C values carry the count of animals alive at the toxicity check (mostly the fifth day); where neither a count nor a note follows, no animal had died by that day.

The assay relates to L1210 leukemia ip in BDF1 mice, survival T/C. Put plainly: NCI In Vivo Anticancer Drug Screen. Data for tumor model L1210 Leukemia (intraperitoneal) in B6D2F1 (BDF1) mice. The following applies: T/C endpoint: mean survival time, higher T/C = longer survival.
Where [1] appears, read: dose: 100.0 mg/kg/injection, schedule: Q01DX001 (ip), vehicle: saline.
The mark [2] stands for this setting: dose: 100.0 mg/kg/injection, schedule: Q04DX002 (ip), vehicle: saline with Tween-80.
[3] abbreviates: dose: 50.0 mg/kg/injection, schedule: Q01DX009 (ip), vehicle: saline with Tween-80.
Setting [4] is: dose: 100.0 mg/kg/injection, schedule: Q01DX009 (ip), vehicle: saline with Tween-80.
Where [5] appears, read: dose: 200.0 mg/kg/injection, schedule: Q01DX009 (ip), vehicle: saline with Tween-80.

As for `O=P(Nc1ccccn1)(N1CC1)N1CC1`, the T/C by setting is: (dose: 2.5 mg/kg/injection, schedule: Q01DX015 (ip), vehicle: saline) 164 % of control; (dose: 2.9 mg/kg/injection, schedule: Q01DX015 (ip), vehicle: saline) 123 % of control; (dose: 4.4 mg/kg/injection, schedule: Q01DX015 (ip), vehicle: saline) 147 % of control; (dose: 5.0 mg/kg/injection, schedule: Q01DX015 (ip), vehicle: saline) 179 % of control; (dose: 6.0 mg/kg/injection, schedule: Q01DX001 (ip), vehicle: saline) 122 % of control; (dose: 6.25 mg/kg/injection, schedule: Q01DX001 (ip), vehicle: saline) 108 % of control. Also, the T/C (dose: 6.6 mg/kg/injection, schedule: Q01DX015 (ip), vehicle: saline) was 178 % of control; the T/C (dose: 10.0 mg/kg/injection, schedule: Q01DX001 (ip), vehicle: saline) was 137 % of control; the T/C (dose: 10.0 mg/kg/injection, schedule: Q01DX015 (ip), vehicle: saline) is 194, 214, 271 % of control; the T/C (dose: 12.0 mg/kg/injection, schedule: Q01DX001 (ip), vehicle: saline) was 131 % of control; the T/C (dose: 12.5 mg/kg/injection, schedule: Q01DX001 (ip), vehicle: saline) is 124 % of control; the T/C (dose: 16.0 mg/kg/injection, schedule: Q01DX001 (ip), vehicle: saline) is 157 % of control. Further, the T/C is, setting by setting: (dose: 16.0 mg/kg/injection, schedule: Q01DX015 (ip), vehicle: saline) 164 % of control; (dose: 20.0 mg/kg/injection, schedule: Q01DX015 (ip), vehicle: saline) 120 % of control; (dose: 24.0 mg/kg/injection, schedule: Q01DX001 (ip), vehicle: saline) 156 and 162 % of control; (dose: 24.0 mg/kg/injection, schedule: Q01DX015 (ip), vehicle: saline) 113 % of control [5 of 6 alive]; (dose: 25.0 mg/kg/injection, schedule: Q01DX001 (ip), vehicle: saline) 161 % of control; (dose: 36.0 mg/kg/injection, schedule: Q01DX001 (ip), vehicle: saline) 190 % of control. Also, the T/C was 86 % of control (dose: 36.0 mg/kg/injection, schedule: Q01DX015 (ip), vehicle: saline); 126 [3 of 4 alive] and 173 % of control (dose: 50.0 mg/kg/injection, schedule: Q01DX001 (ip), vehicle: saline); 164 % of control [4 of 6 alive] under setting [1]. In addition, the survivor count is recorded as 3 of 6 (dose: 40.0 mg/kg/injection, schedule: Q01DX015 (ip), vehicle: saline); 3 of 4 under setting [1]; 1 of 4 (dose: 200.0 mg/kg/injection, schedule: Q01DX001 (ip), vehicle: saline).

Turning to `O=[N+]([O-])c1ccc(SSc2ccc([N+](=O)[O-])cc2[N+](=O)[O-])c([N+](=O)[O-])c1`, the T/C is, setting by setting: (dose: 50.0 mg/kg/injection, schedule: Q01DX001 (ip), vehicle: carboxymethylcellulose (CMC)) 98 % of control; (dose: 100.0 mg/kg/injection, schedule: Q04DX003 (ip), vehicle: saline with Tween-80) 95 % of control [5 of 6 alive]; (dose: 200.0 mg/kg/injection, schedule: Q04DX003 (ip), vehicle: saline with Tween-80) 94 % of control; (dose: 400.0 mg/kg/injection, schedule: Q01DX001 (ip), vehicle: carboxymethylcellulose (CMC)) 95 % of control; (dose: 400.0 mg/kg/injection, schedule: Q04DX003 (ip), vehicle: saline with Tween-80) 94 % of control. Further, the survivor count is given as 4 of 4 (dose: 100.0 mg/kg/injection, schedule: Q01DX001 (ip), vehicle: carboxymethylcellulose (CMC)) and 4 of 4 (dose: 200.0 mg/kg/injection, schedule: Q01DX001 (ip), vehicle: carboxymethylcellulose (CMC)).

Consider `Cc1ccc2c(c1)C[P+](c1ccccc1)(c1ccccc1)CCC2C.F[P-](F)(F)(F)(F)F` (stereo unspecified), for which the T/C is, setting by setting: (dose: 25.0 mg/kg/injection, schedule: Q04DX002 (ip), vehicle: saline with Tween-80) 94 % of control; (dose: 50.0 mg/kg/injection, schedule: Q04DX002 (ip), vehicle: saline with Tween-80) 88 % of control; under setting [2], 102 % of control.

Regarding `Cc1c([N+](=O)[O-])c(C)c([N+](=O)[O-])c(C2CCCC2)c1[N+](=O)[O-]`, the T/C under setting [3] was 97 % of control [survivor count not shown], the T/C under setting [4] was 97 % of control [survivor count not shown] and the T/C under setting [5] was 101 % of control [survivor count not shown].

For `O=C(CSc1ccc([N+](=O)[O-])cc1[N+](=O)[O-])c1ccc([N+](=O)[O-])cc1`, the T/C (dose: 100.0 mg/kg/injection, schedule: Q01DX001 (ip), vehicle: Klucel (hydroxypropylcellulose) (HPC)) is 90 % of control; the T/C (dose: 200.0 mg/kg/injection, schedule: Q01DX001 (ip), vehicle: Klucel (hydroxypropylcellulose) (HPC)) was 89 % of control; the T/C (dose: 400.0 mg/kg/injection, schedule: Q01DX001 (ip), vehicle: Klucel (hydroxypropylcellulose) (HPC)) is 90 % of control.

Turning to `CCOP1(N)=NP(Cl)(Cl)=NP(Cl)(Cl)=N1` (stereo unspecified), the T/C was 100 % of control (dose: 12.5 mg/kg/injection, schedule: Q01DX009 (ip), vehicle: saline with Tween-80); 105 % of control (dose: 25.0 mg/kg/injection, schedule: Q01DX009 (ip), vehicle: saline with Tween-80); 98 and 100 % of control under setting [3]. Moreover, the survivor count under setting [4] is listed as 3 of 6 and the survivor count under setting [5] is 0 of 6.

Consider `CN(C)P(=O)(N(C)C)n1c(Nc2ccccc2)nnc1-c1ccccc1`, for which the T/C by setting is: (dose: 0.75 mg/kg/injection, schedule: Q01DX009 (ip), vehicle: saline) 105 % of control; (dose: 1.5 mg/kg/injection, schedule: Q01DX009 (ip), vehicle: saline) 98 % of control; (dose: 1.5 mg/kg/injection, schedule: Q04DX003 (ip), vehicle: saline) 110 % of control; (dose: 3.0 mg/kg/injection, schedule: Q01DX009 (ip), vehicle: saline) 107 % of control; (dose: 3.0 mg/kg/injection, schedule: Q04DX003 (ip), vehicle: saline) 110 % of control. Besides, the survivor count (dose: 6.0 mg/kg/injection, schedule: Q04DX003 (ip), vehicle: saline) is on record as 6 of 6; the survivor count (dose: 12.5 mg/kg/injection, schedule: Q04DX003 (ip), vehicle: saline) is recorded as 0 of 6; the survivor count (dose: 25.0 mg/kg/injection, schedule: Q04DX003 (ip), vehicle: saline) is listed as 0 of 6; the survivor count (dose: 50.0 mg/kg/injection, schedule: Q04DX003 (ip), vehicle: saline) was 0 of 6; the survivor count (dose: 100.0 mg/kg/injection, schedule: Q04DX003 (ip), vehicle: saline) is 0 of 6; the survivor count (dose: 200.0 mg/kg/injection, schedule: Q04DX003 (ip), vehicle: saline) is 0 of 6. The survivor count (dose: 400.0 mg/kg/injection, schedule: Q04DX003 (ip), vehicle: saline) is listed as 0 of 6.

`O=P1(c2ccccc2)NC2CC(C(F)(F)F)CCC2S1` (stereo unspecified): the T/C under setting [2] is 99 % of control; the T/C (dose: 200.0 mg/kg/injection, schedule: Q04DX002 (ip), vehicle: saline with Tween-80) was 92 % of control; the T/C (dose: 400.0 mg/kg/injection, schedule: Q04DX002 (ip), vehicle: saline with Tween-80) was 92 % of control.

In the case of `COP(N1CC1)N1CC1.COP(OC)N1CC1`, the T/C is, setting by setting: (dose: 10.0 mg/kg/injection, schedule: Q04DX003 (ip), vehicle: saline) 117 % of control; (dose: 20.0 mg/kg/injection, schedule: Q04DX003 (ip), vehicle: saline) 120 % of control. For the same compound, the survivor count (dose: 40.0 mg/kg/injection, schedule: Q04DX003 (ip), vehicle: saline) is 3 of 6.

Take `CC(C)(C)P(=S)(Cl)c1ccccc1` (stereo unspecified): the T/C (dose: 100.0 mg/kg/injection, schedule: Q01DX009 (ip), vehicle: Klucel (hydroxypropylcellulose) (HPC)) was 100 % of control; the T/C (dose: 200.0 mg/kg/injection, schedule: Q01DX009 (ip), vehicle: Klucel (hydroxypropylcellulose) (HPC)) was 97 % of control; the T/C (dose: 400.0 mg/kg/injection, schedule: Q01DX009 (ip), vehicle: Klucel (hydroxypropylcellulose) (HPC)) is 92 % of control.
